Reference: PubChem BioAssay AID1259424 (University of Nebraska Medical Center, 2018)

Test: 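Seek colon cancer survival genes behaving like KSR1, using a six-gene signature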 (primary screen)
Cell system: human HCT116 colon cancer cells
Reagent: siRNA pool against human genes, 50 nM
Read-out: 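Log2 levels of six mRNAs (branched-DNA multiplex), adjusted by two reference genes and the non-targeting median, then scored against the average KSR1 knockdown pattern as Pearson r and euclidean distance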
Reading the numbers: mean correlation with KSR1 profile: higher = expression change more like KSR1 knockdown
This is a random part of about 14,000 reagents tested. 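Higher correlation or smaller distance means closer resemblance to KSR1 loss; control wells, including KSR1 knockdowns, recur on many plates.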 Not all columns of the deposit are shown. Reagent sequences are not shown. The record does not give: the time to read-out.

The opening 6 entries as a preview:
| target gene | mean correlation with KSR1 profile |
| --- | --- |
| C11orf71 | -0.0345 |
| ALDH1A1 | -0.0644 |
| TULP2 | 0.139 |
| RPIA | -0.538 |
| DST | -0.215 |
| UTRN | -0.0446 |

Main list, from the start:
| target gene | mean correlation with KSR1 profile |
| --- | --- |
| C11orf71 | -0.0345 |
| ALDH1A1 | -0.0644 |
| TULP2 | 0.139 |
| RPIA | -0.538 |
| DST | -0.215 |
| UTRN | -0.0446 |
| SAR1B | -0.611 |
| GART | -0.0443 |
| BCAS4 | -0.399 |
| SNUPN | 0.378 |
| DOC2B | -0.52 |
| SUN2 | -0.604 |
| MLANA | -0.357 |
| IMPA1 | 0.172 |
| ACCS | 0.0686 |
| UBL4A | 0.444 |
| INHA | -0.0114 |
| GCFC2 | -0.546 |
| DPH2 | 0.0351 |
| ELSPBP1 | -0.441 |
| MAN2A1 | 0.176 |
| EIF2B4 | 0.265 |
| EMC1 | -0.465 |
| ERLEC1 | -0.594 |
| SRSF9 | -0.526 |
| CNTN3 | -0.312 |
| ABT1 | -0.197 |
| SLC27A2 | 0.0514 |
| ARID4B | 0.0954 |
| CDK17 | -0.182 |
| MICB | -0.209 |
| ITCH | -0.219 |
| ARNT | -0.689 |
| CSDE1 | 0.0913 |
| C9 | -0.389 |
| UBE2V2 | -0.478 |
| PPP1CA | -0.63 |
| SCARB1 | -0.055 |
| EIF2B2 | 0.254 |
| ZFR2 | 0.12 |
| CENPM | 0.504 |
| SHC3 | -0.394 |
| C3 | 0.134 |
| BDH2 | -0.798 |
| TAF1D | -0.203 |
| THBD | 0.0475 |
| PPP1R13B | 0.134 |
| POFUT1 | -0.542 |
| SCN2B | -0.37 |
| QSER1 | -0.55 |
| BMP3 | 0.114 |
| NXPE4 | -0.395 |
| MRPL18 | 0.194 |
| GOT2 | -0.121 |
| ROCK1 | 0.767 |
| LZTS2 | 0.718 |
| APH1A | -0.396 |
| GRHPR | 0.536 |
| EPO | 0.425 |
| P4HB | 0.355 |
| RCAN2 | -0.49 |
| IL13RA1 | -0.302 |
| ST6GALNAC6 | 0.324 |
